No constants are given. Whether binding was seen depends on the method and setting. Some entries that bind do so weakly or less than the wild type.
Target: human CALR del61 frameshift mutant calreticulin (61 base pair deletion in CALR exon 9) (human) (UniProt P27797)
Experiment: non-reducing Western blot of TpoR immunoprecipitates (homodimer)

“human CALR del61 frameshift mutant calreticulin (61 base pair deletion in CALR exon 9) (from UniProt P27797 18-417)” was tested, and the binding was “binds”.
